Our source for the binding values is publication PMC9020517.

Protein sequences, listed by entry. Tags and fused reporters are not part of them. Residues count along the entry.
UniProt Q15843, residues 1-76: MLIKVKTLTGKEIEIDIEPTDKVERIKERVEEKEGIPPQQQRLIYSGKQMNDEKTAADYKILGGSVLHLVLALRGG
UniProt Q9UBN7: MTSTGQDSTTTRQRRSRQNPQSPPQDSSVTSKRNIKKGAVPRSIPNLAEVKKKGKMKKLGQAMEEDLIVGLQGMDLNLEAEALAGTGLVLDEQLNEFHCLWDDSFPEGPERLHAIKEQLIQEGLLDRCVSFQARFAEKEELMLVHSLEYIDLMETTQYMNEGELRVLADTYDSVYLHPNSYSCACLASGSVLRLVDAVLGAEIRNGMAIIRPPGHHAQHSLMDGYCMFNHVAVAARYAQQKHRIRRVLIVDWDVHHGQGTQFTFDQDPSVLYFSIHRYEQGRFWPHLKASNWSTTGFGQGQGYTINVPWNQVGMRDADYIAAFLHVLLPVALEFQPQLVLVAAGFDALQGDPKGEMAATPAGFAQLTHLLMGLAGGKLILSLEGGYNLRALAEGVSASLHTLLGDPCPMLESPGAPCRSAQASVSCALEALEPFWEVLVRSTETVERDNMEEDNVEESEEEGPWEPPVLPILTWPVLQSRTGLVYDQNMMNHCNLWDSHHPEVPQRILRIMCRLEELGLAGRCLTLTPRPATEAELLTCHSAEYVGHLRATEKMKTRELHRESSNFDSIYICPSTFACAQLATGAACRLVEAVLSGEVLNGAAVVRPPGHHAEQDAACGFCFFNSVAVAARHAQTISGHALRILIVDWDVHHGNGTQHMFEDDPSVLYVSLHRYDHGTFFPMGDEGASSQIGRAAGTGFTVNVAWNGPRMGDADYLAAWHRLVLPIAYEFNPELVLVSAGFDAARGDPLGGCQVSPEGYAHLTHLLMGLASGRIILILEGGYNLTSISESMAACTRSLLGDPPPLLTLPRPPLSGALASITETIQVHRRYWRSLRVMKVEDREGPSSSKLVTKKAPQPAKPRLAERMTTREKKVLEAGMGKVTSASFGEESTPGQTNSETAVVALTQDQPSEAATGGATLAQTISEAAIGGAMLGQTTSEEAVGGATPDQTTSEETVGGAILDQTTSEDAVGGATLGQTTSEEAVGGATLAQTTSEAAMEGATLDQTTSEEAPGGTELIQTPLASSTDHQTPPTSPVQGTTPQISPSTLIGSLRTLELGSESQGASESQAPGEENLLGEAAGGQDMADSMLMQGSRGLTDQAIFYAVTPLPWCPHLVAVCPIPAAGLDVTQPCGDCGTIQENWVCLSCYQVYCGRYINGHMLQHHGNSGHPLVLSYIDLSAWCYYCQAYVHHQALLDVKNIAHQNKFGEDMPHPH

These are yes or no findings as the source states them, for the method shown. Binding seen in cells or lysates may run through a third protein. Some entries that bind do so weakly or less than the wild type.

This assay deals with Strep-pNEDD8 (human NEDD8 1-76 phosphorylated at S65, N-terminal Strep-tag II) (human) (UniProt Q15843). As to the kind of experiment: pull-down; affinity enrichment as for AE-MS with Strep-Ub/NEDD8 variants as bait and HEK293T cell lysate; 10% of the eluate analysed by Western blot with antibodies specific for the respective protein; only the target purified. (In general: In western blotting, separated proteins are transferred to a membrane and probed.)

Consider HDAC6 (from UniProt Q9UBN7 1-1215), for which the binding entry is on record as “binds”.
